Data: the supplement of paper PMC5949888
± gives the standard deviation of the averaged measurements. Most values lie at the floor of the assay. Slopes are relative: functional sequences can read slightly below zero.

These substances were tested on Saccharomyces cerevisiae PS128 hsf1 delta, HSF1(1-493) fusion (assay: growth estimate (transactivation domain function in HSF1 fusion, heat-shock survival) (a.u. (slope of normalised read count over time)); higher = stronger growth at 37°C, i.e. more transactivation activity). Conditions: library: random library.

Q: For QTASAVKGSWPIPPQSFFHP, which growth estimate is on record?
A: < -0.25

Q: How did the growth estimate turn out when QTFVLPLSLVWGALHKSTTP was run?
A: < -0.25

Q: With QTGESVRPCQHGTGSPLWGQ as the substance, how does the growth estimate read?
A: < -0.25

Q: For QTGGGIRGL, which growth estimate is on record?
A: < -0.25

Q: With QTGIFVSRNSDGPLGPHRLA as the substance, how does the growth estimate read?
A: < -0.25

Q: Which growth estimate does the source give for QTGSVTRQMMLLQTVNALGW here?
A: -0.243

Q: Which growth estimate does the source give for QTKLADGVD here?
A: -0.246

Q: With QTLFRREVS as the substance, how does the growth estimate read?
A: < -0.25

Q: Which growth estimate does the source give for QTLPRTGGSIIRVLNFSAAG here?
A: < -0.25

Q: Which growth estimate does the source give for QTNCAFHGRPHYEFATPPGT here?
A: < -0.25

Q: With QTNFAHQG as the substance, how does the growth estimate read?
A: < -0.25

Q: For QTRFVLMRPIDLGRVIFEA, which growth estimate is on record?
A: -0.231

Q: Which growth estimate does the source give for QTRLDPDNSITYRG here?
A: < -0.25

Q: Which growth estimate does the source give for QTRVVGSDNWQR here?
A: < -0.25

Q: How did the growth estimate turn out when QTRYSVIASNTLPNGS was run?
A: < -0.25

Q: For QTSQRLPWY, which growth estimate is on record?
A: < -0.25

Q: With QTVKITPECIPLYWINLGFT as the substance, how does the growth estimate read?
A: < -0.25

Q: With QTWEYPGGGADVVDYNWHAL as the substance, how does the growth estimate read?
A: < -0.25

Q: With QVASSP as the substance, how does the growth estimate read?
A: < -0.25

Q: With QVCAITATAGLDL as the substance, how does the growth estimate read?
A: < -0.25

Q: For QVDV, which growth estimate is on record?
A: < -0.25

Q: With QVDVTSKLTPLSSKLLWACS as the substance, how does the growth estimate read?
A: < -0.25

Q: QVHIFW was tested. Which growth estimate did it give?
A: < -0.25

Q: How did the growth estimate turn out when QVKVFDAAIHLTDRQTDGTK was run?
A: < -0.25

Q: QVLFTFQLKGLRAFGDRSWE was tested. Which growth estimate did it give?
A: < -0.25

Q: QVLPVRTPAT was tested. Which growth estimate did it give?
A: < -0.25

Q: With QVMPIGFVGIHA as the substance, how does the growth estimate read?
A: < -0.25

Q: With QVQDLSYGVRLQGPDSGRGP as the substance, how does the growth estimate read?
A: < -0.25

Q: How did the growth estimate turn out when QVRFSCGLLTSVLEHIGTRG was run?
A: < -0.25

Q: For QVRLAVTKSACVSLMIAVLS, which growth estimate is on record?
A: < -0.25

Q: With QVRLSNATASGLG as the substance, how does the growth estimate read?
A: < -0.25

Q: For QVRSDHLTFWTN, which growth estimate is on record?
A: < -0.25

Q: Which growth estimate does the source give for QVS here?
A: < -0.25

Q: Which growth estimate does the source give for QVSASVDL here?
A: < -0.25

Q: With QVSAWYRLVVEMRVHSDSPR as the substance, how does the growth estimate read?
A: < -0.25

Q: QVSGASTPERSSTGTDLSLG was tested. Which growth estimate did it give?
A: < -0.25

Q: Which growth estimate does the source give for QVSKPPTVPRSDSSLCSFTR here?
A: < -0.25

Q: How did the growth estimate turn out when QVSQRTRRNRQCRLTRC was run?
A: < -0.25

Q: Which growth estimate does the source give for QVTK here?
A: -0.178

Q: With QVVAGLRYNSNSAYQFVGLG as the substance, how does the growth estimate read?
A: < -0.25

Q: With QVVDS as the substance, how does the growth estimate read?
A: < -0.25

Q: For QVVGRPILTEQRRRSRINQL, which growth estimate is on record?
A: < -0.25

Q: For QVYQGSIFMTSECIKES, which growth estimate is on record?
A: < -0.25

Q: QWACGNRFHLLELRTFIAHS was tested. Which growth estimate did it give?
A: < -0.25

Q: For QWGRTVREAE, which growth estimate is on record?
A: < -0.25

Q: Which growth estimate does the source give for QWITSCGESLPSCAMHRSAP here?
A: -0.245

Q: With QWMGGGTPLVSPRKRGARHT as the substance, how does the growth estimate read?
A: < -0.25

Q: Which growth estimate does the source give for QWPVDIPHLWLSHPDARSAG here?
A: < -0.25

Q: For QWQSGAGGSSSNIQEAGLTT, which growth estimate is on record?
A: < -0.25

Q: QWQSSQITDFVLRTPTALPQ was tested. Which growth estimate did it give?
A: < -0.25

Q: With QWRSSVIMFSEVMHSVPQCA as the substance, how does the growth estimate read?
A: < -0.25

Q: For QWSYKRGLSILGAVLLWGVF, which growth estimate is on record?
A: < -0.25

Q: How did the growth estimate turn out when QWTVIVSSAIERIRRSSQLR was run?
A: < -0.25

Q: Which growth estimate does the source give for QWVCKHHSQLNHPTHFELRR here?
A: < -0.25

Q: Which growth estimate does the source give for QYDG here?
A: < -0.25

Q: Which growth estimate does the source give for QYE here?
A: < -0.25

Q: With QYGLPYKTGVIDMQTKLSSL as the substance, how does the growth estimate read?
A: < -0.25

Q: How did the growth estimate turn out when QYGSHPKCLSVT was run?
A: < -0.25

Q: QYIA was tested. Which growth estimate did it give?
A: < -0.25

Q: For QYLFRVEGI, which growth estimate is on record?
A: -0.25

Q: For QYLRAQE, which growth estimate is on record?
A: < -0.25

Q: How did the growth estimate turn out when QYMMLSWFGPIRGRYGVTCI was run?
A: < -0.25

Q: How did the growth estimate turn out when QYPFRVIHL was run?
A: < -0.25

Q: QYRQCRWFERGGSSVGSWIK was tested. Which growth estimate did it give?
A: < -0.25

Q: With QYSPAWRRHGGR as the substance, how does the growth estimate read?
A: < -0.25

Q: For QYV, which growth estimate is on record?
A: < -0.25

Q: For QYYLQSACFVPRDTVVAPLT, which growth estimate is on record?
A: < -0.25

Q: How did the growth estimate turn out when RAAADIRHWSQSHFTTNHDW was run?
A: -0.243

Q: How did the growth estimate turn out when RAASRTGQSRSSQQLAPGYA was run?
A: < -0.25

Q: How did the growth estimate turn out when RACSMLGVHRGDF was run?
A: < -0.25

Q: Which growth estimate does the source give for RACSQRGGM here?
A: < -0.25

Q: Which growth estimate does the source give for RADALRLGALSCKRAGDSCV here?
A: < -0.25

Q: With RADCEVMQVWQQGTGQSAGP as the substance, how does the growth estimate read?
A: < -0.25

Q: RADNC was tested. Which growth estimate did it give?
A: < -0.25

Q: Which growth estimate does the source give for RADPGYLTHAWLWKS here?
A: < -0.25

Q: How did the growth estimate turn out when RAEQYLKQQP was run?
A: < -0.25

Q: RAERNAGKVWELCPCRSEDT was tested. Which growth estimate did it give?
A: < -0.25

Q: With RAEYRDWRGNCGTQPDLRPT as the substance, how does the growth estimate read?
A: < -0.25

Q: How did the growth estimate turn out when RAFSTCPKYVAFVPRSESTP was run?
A: < -0.25

Q: With RAFYIPIRDLRF as the substance, how does the growth estimate read?
A: < -0.25

Q: Which growth estimate does the source give for RAGLTNSR here?
A: < -0.25

Q: Which growth estimate does the source give for RAGMYYFTRGGPLVVAR here?
A: < -0.25

Q: With RAGTECRIFTLVKARIGSGP as the substance, how does the growth estimate read?
A: < -0.25

Q: Which growth estimate does the source give for RAGVVQWVVQSASEGRRFHW here?
A: < -0.25

Q: For RAHRVSGNLIVNMSQNRTRS, which growth estimate is on record?
A: < -0.25

Q: For RAHSVREPATRGRDQFVQ, which growth estimate is on record?
A: < -0.25

Q: Which growth estimate does the source give for RAHTIEEGVYAGCKVRQFGS here?
A: -0.25

Q: Which growth estimate does the source give for RAHVSVVVEERY here?
A: < -0.25

Q: For RAIAASRGTRKAI, which growth estimate is on record?
A: < -0.25

Q: RAISQPSFKCVTLKDVVRSA was tested. Which growth estimate did it give?
A: < -0.25

Q: With RAKAIVTRPCFKPH as the substance, how does the growth estimate read?
A: < -0.25

Q: RAKISEHPVPPCRHRRFVRR was tested. Which growth estimate did it give?
A: < -0.25

Q: With RAKRWVTPSICAGKLDRKRH as the substance, how does the growth estimate read?
A: < -0.25

Q: Which growth estimate does the source give for RALLAPPWSGLVCVCRCLWL here?
A: < -0.25

Q: How did the growth estimate turn out when RALRHKTLAST was run?
A: < -0.25

Q: How did the growth estimate turn out when RAMFGSMPPGIRLDR was run?
A: < -0.25

Q: RANDAMIPVLGGTAERGNGP was tested. Which growth estimate did it give?
A: < -0.25

Q: RANTARYKRYLPMRALRMVT was tested. Which growth estimate did it give?
A: < -0.25

Q: How did the growth estimate turn out when RANVGNTFRNRGGCPYSLLI was run?
A: < -0.25

Q: With RANVSYSY as the substance, how does the growth estimate read?
A: < -0.25

Q: Which growth estimate does the source give for RAPREPRSLRTRHQDPGSLG here?
A: < -0.25

Q: With RAPSTVHLGVMLDGLKQRLT as the substance, how does the growth estimate read?
A: < -0.25

Q: With RAQSGKNLRTIMGTVSVQVT as the substance, how does the growth estimate read?
A: < -0.25

Q: For RARHVGLTVNGEMISVITVR, which growth estimate is on record?
A: < -0.25

Q: RARILREGGPTKESPGTPEF was tested. Which growth estimate did it give?
A: < -0.25

Q: How did the growth estimate turn out when RARSFGLIRPMCIFSSVKDL was run?
A: < -0.25

Q: RASGA was tested. Which growth estimate did it give?
A: < -0.25

Q: For RASGSELNLFVYSGRRRSTL, which growth estimate is on record?
A: < -0.25

Q: For RASIRQSRIGGSATATPVGV, which growth estimate is on record?
A: < -0.25

Q: Which growth estimate does the source give for RASRPLLCDTFGQANTSRPE here?
A: < -0.25

Q: How did the growth estimate turn out when RATFGELNWSFEYRLFG was run?
A: < -0.25

Q: For RATRWGSPYVFE, which growth estimate is on record?
A: < -0.25

Q: RATYMVVAGWSAIAGLNGTL was tested. Which growth estimate did it give?
A: < -0.25

Q: RAVAWPAL was tested. Which growth estimate did it give?
A: < -0.25

Q: With RAVERCVVR as the substance, how does the growth estimate read?
A: < -0.25

Q: With RAVFRGIAVSTRMRSHLWTI as the substance, how does the growth estimate read?
A: < -0.25

Q: With RAVGVRGLLTCLARKYNGPQ as the substance, how does the growth estimate read?
A: -0.231

Q: How did the growth estimate turn out when RAVGYDHATVRRTIRWS was run?
A: < -0.25

Q: For RAVIVVTVGADVVESGYPGA, which growth estimate is on record?
A: < -0.25

Q: RAYRRVA was tested. Which growth estimate did it give?
A: < -0.25

Q: With RCAHQG as the substance, how does the growth estimate read?
A: < -0.25

Q: Which growth estimate does the source give for RCAVSRSEPLNCRGNTRAYW here?
A: < -0.25

Q: For RCCPLEGTRPWDR, which growth estimate is on record?
A: < -0.25

Q: With RCDATGALIRKTLRRTAWE as the substance, how does the growth estimate read?
A: < -0.25

Q: How did the growth estimate turn out when RCDI was run?
A: < -0.25

Q: For RCDNW, which growth estimate is on record?
A: < -0.25

Q: With RCDRVDQSRYSG as the substance, how does the growth estimate read?
A: < -0.25

Q: For RCFRHRINHKLFS, which growth estimate is on record?
A: < -0.25

Q: How did the growth estimate turn out when RCFTRSDDKSLYVQTD was run?
A: < -0.25

Q: For RCGRRS, which growth estimate is on record?
A: < -0.25

Q: RCHIRSGCASAWRRLQRAYA was tested. Which growth estimate did it give?
A: -0.246

Q: How did the growth estimate turn out when RCIAADCRDHDGSCTRR was run?
A: < -0.25

Q: For RCISRIYQYSCPLSTPVGGL, which growth estimate is on record?
A: < -0.25

Q: RCKV was tested. Which growth estimate did it give?
A: < -0.25

Q: How did the growth estimate turn out when RCLGGPNSRGRTSVAGRIPR was run?
A: < -0.25

Q: RCLHSPTGRKRTGFACGCWS was tested. Which growth estimate did it give?
A: < -0.25

Q: For RCLLVTFNGSETCVSTYSCG, which growth estimate is on record?
A: < -0.25

Q: RCNIK was tested. Which growth estimate did it give?
A: < -0.25

Q: RCPRGTDHCQLSRVFGLVHG was tested. Which growth estimate did it give?
A: < -0.25

Q: RCQ was tested. Which growth estimate did it give?
A: -0.163 ± 0.12

Q: How did the growth estimate turn out when RCQLVYVAFGVILLSNVTLH was run?
A: < -0.25

Q: How did the growth estimate turn out when RCRGNEYIQQQARGVGSVYM was run?
A: < -0.25
